Measured values as given in the supplement of paper PMC11732987, “Enantioselective OTUD7B fragment discovery through chemoproteomics screening and high-throughput optimisation” (Communications Chemistry, 2025).
The other results are listed elsewhere or left out. The data scatter; read single values as rough.

Sequences of proteins named here, by UniProt entry; tags and fusion partners are left off. A change or cut given only in a name is not applied to a line headed by its entry. Residues count along the entry.
UniProt Q13530: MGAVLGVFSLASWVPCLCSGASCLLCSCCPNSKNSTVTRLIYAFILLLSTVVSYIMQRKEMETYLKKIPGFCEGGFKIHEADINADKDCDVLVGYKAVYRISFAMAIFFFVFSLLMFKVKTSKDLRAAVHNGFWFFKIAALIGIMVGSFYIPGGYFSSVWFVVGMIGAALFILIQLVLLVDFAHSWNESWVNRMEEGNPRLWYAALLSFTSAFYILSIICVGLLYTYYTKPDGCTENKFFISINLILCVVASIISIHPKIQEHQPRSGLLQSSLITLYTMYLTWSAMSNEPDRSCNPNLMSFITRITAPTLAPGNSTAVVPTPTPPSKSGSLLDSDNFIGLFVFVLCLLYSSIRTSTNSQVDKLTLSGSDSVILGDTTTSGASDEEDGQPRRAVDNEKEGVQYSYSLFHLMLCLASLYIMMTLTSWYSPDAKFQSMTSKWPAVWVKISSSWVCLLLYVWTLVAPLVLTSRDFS
UniProt Q9Y3Z3: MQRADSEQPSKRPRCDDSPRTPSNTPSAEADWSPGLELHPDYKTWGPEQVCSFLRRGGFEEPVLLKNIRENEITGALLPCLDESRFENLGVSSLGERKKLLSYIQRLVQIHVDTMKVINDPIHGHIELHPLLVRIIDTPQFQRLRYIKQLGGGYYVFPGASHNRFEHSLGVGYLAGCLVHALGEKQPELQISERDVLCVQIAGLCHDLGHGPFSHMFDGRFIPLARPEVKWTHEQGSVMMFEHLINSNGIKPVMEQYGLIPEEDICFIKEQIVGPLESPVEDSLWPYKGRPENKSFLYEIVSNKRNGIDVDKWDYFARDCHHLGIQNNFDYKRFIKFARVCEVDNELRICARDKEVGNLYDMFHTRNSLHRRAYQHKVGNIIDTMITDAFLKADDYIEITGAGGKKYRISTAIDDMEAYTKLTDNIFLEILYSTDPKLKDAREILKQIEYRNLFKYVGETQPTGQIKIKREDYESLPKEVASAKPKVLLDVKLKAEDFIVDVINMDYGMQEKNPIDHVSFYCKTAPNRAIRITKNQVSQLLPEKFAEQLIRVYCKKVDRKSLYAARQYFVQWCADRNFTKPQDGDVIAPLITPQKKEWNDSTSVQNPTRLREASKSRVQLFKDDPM
UniProt Q96HI0: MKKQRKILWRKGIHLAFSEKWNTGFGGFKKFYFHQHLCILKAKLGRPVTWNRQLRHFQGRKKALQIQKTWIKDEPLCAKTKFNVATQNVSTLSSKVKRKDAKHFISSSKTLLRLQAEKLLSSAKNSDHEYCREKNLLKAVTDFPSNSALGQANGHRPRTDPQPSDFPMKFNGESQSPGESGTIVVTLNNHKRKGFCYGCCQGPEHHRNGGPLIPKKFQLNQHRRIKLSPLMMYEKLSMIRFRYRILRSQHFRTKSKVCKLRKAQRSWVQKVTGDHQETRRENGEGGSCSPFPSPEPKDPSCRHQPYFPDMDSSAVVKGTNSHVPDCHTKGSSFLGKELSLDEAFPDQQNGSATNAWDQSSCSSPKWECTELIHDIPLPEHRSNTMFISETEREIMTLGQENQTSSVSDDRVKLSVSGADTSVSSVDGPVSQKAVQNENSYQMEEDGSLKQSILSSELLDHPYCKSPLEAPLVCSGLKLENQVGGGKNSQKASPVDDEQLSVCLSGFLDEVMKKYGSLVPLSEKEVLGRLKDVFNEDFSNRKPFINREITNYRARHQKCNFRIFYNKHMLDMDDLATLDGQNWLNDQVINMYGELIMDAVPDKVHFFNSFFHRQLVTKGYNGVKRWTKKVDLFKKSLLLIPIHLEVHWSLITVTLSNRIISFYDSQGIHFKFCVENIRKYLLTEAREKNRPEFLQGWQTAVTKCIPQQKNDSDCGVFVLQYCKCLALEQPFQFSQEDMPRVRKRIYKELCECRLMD
UniProt Q8N196: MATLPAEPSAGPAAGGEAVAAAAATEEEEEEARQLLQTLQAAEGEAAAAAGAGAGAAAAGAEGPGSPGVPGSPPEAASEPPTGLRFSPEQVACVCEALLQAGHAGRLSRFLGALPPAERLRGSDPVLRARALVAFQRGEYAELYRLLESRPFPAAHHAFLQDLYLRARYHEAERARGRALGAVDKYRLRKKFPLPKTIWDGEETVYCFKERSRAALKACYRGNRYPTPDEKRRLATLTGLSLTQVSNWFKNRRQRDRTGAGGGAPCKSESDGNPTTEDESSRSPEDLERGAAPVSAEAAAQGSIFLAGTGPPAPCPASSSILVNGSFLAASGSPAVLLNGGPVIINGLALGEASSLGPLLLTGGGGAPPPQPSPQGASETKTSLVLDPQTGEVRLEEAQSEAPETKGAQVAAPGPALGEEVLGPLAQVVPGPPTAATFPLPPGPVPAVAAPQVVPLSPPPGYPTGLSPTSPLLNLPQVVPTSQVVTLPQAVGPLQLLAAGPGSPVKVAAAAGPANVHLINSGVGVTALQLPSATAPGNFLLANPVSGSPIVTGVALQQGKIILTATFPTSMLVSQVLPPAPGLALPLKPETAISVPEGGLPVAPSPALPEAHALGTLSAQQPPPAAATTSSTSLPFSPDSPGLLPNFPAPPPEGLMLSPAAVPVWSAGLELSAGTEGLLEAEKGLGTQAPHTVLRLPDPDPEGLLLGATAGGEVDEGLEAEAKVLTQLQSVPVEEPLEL
UniProt Q15393: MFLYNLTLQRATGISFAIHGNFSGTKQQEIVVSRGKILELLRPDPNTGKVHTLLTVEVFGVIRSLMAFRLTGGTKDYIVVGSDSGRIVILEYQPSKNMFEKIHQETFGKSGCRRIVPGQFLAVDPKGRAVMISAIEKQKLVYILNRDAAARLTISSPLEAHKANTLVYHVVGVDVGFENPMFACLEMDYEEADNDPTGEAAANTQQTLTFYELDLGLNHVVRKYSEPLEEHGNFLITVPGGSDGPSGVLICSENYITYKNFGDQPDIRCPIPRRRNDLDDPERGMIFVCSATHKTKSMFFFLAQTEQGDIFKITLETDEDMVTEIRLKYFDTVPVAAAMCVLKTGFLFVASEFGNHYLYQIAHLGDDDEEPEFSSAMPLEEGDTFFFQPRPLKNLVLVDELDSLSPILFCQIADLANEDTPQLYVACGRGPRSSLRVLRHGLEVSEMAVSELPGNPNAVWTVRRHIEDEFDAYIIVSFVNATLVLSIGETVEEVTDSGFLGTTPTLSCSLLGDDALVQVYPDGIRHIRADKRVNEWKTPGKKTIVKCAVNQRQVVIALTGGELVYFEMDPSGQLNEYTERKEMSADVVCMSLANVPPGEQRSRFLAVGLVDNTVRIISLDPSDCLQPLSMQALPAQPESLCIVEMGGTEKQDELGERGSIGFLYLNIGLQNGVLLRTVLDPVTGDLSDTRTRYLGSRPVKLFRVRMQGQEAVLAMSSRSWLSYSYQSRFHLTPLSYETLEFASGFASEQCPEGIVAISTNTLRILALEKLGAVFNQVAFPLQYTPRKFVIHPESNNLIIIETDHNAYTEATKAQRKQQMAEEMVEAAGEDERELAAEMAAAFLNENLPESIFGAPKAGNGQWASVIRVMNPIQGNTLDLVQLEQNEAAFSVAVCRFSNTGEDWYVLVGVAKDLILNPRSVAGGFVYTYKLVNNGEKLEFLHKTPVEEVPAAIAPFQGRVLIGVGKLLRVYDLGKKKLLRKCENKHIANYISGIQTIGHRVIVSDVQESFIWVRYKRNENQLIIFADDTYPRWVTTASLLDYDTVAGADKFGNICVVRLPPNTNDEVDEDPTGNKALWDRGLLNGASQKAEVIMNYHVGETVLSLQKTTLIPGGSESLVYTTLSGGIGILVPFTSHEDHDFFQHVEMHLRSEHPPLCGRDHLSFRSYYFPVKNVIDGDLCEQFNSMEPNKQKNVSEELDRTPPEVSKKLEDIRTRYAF
UniProt Q7Z333: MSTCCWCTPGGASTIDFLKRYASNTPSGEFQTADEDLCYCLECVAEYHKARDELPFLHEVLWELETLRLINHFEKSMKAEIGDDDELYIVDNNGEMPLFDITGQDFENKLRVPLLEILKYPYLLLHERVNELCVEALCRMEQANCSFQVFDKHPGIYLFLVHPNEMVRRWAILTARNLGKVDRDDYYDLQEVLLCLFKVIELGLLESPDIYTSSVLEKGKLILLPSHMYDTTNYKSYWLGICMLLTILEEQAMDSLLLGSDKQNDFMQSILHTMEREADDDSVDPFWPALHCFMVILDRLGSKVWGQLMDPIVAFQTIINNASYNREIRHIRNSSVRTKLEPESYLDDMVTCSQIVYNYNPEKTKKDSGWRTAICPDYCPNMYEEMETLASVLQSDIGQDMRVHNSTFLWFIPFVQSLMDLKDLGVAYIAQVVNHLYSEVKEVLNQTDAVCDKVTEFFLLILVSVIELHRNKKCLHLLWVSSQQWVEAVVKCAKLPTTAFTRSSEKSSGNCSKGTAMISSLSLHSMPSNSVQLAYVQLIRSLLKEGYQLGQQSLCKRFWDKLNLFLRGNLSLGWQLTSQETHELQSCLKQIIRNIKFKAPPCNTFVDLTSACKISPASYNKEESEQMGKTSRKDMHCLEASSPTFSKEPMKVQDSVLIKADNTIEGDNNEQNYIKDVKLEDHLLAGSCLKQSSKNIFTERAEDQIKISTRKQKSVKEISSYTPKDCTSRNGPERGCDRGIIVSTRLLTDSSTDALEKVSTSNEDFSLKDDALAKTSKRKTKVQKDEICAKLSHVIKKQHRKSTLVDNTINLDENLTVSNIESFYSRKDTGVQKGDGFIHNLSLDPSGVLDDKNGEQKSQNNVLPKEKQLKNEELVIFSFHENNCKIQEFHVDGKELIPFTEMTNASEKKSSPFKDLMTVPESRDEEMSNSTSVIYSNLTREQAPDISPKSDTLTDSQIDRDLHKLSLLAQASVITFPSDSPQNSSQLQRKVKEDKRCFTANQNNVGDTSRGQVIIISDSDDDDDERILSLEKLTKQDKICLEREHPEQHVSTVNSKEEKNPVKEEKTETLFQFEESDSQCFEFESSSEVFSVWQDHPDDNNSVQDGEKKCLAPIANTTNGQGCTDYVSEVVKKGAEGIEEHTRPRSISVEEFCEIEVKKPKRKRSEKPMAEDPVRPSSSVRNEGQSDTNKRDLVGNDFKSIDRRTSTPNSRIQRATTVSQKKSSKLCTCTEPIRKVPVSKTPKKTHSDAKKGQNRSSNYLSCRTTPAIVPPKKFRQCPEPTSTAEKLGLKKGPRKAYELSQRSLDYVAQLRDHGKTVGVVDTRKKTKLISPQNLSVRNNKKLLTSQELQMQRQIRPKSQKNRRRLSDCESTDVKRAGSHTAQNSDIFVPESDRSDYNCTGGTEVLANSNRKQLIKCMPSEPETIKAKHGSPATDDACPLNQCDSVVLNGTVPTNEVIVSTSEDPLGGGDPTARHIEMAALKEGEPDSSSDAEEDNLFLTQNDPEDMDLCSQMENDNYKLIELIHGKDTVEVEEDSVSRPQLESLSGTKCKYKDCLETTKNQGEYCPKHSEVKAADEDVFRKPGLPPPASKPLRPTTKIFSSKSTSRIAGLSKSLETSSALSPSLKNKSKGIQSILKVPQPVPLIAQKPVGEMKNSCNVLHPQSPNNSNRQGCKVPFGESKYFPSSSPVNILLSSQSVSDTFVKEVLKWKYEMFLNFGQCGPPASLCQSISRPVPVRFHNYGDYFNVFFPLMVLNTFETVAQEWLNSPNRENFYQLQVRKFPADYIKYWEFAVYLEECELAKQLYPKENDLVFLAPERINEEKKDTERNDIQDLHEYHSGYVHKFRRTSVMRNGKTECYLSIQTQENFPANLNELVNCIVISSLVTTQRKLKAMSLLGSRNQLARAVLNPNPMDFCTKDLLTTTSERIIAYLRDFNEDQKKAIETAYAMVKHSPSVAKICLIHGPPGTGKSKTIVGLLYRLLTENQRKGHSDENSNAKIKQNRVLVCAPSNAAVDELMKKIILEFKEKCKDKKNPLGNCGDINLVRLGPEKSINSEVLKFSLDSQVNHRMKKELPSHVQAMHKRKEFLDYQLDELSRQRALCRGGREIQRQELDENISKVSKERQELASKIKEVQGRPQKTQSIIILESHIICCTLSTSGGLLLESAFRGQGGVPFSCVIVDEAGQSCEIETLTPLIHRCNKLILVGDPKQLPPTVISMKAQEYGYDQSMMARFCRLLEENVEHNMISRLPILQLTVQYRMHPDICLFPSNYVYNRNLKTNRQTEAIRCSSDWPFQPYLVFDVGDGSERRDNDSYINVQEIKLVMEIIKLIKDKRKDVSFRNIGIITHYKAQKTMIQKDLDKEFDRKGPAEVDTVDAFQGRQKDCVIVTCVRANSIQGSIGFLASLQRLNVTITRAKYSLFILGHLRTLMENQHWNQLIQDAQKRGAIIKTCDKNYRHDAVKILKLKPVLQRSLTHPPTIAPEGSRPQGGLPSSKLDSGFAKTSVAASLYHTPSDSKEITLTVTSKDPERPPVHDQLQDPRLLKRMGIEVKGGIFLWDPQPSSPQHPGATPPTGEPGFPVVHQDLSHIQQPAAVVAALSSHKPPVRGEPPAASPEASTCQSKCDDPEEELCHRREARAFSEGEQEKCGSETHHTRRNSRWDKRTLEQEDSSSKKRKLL
UniProt Q15464, 188-208: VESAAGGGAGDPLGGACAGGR

Legend:
[1] = compound: ClCC(=O)N[C@@H]1CCCc2ccccc12; assay: log2 mean competition ratio of IA-DTB cysteine labelling (DMSO/compound) (log2 ratio); higher = stronger cysteine engagement by compound; settings: treatment time: 4 h, cell line lysate: HEK293T
Protocol: (§1)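 IA-DTB competitive cysteine chemoproteomics in HEK293T RIPA lysate. Lysates were treated with compound 29 or 30 at 50 or 200 µM for 4 h, then IA-DTB (500 µM, 1 h), trypsin-digested, NeutrAvidin-enriched and analysed by diaPASEF. Competition ratio = intensity DMSO / intensity compound (n=4 treated, n=64 DMSO); binding: mean log2 CR ≥ 1 and p ≤ 0.05 plus QC filters. Target is the cysteine site.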

[2] = compound: ClCC(=O)N[C@H]1CCCc2ccccc12; assay: as above; settings: treatment time: 4 h, cell line lysate: HEK293T
Protocol: as §1

| Target | log2 mean competition ratio ([1]; 50 µM) | log2 mean competition ratio ([1]; 200 µM) | log2 mean competition ratio ([2]; 50 µM) | log2 mean competition ratio ([2]; 200 µM) |
| --- | --- | --- | --- | --- |
| SERPINB6 C100 | 0.651 | 0.143 | 0.00885 | 0.337 |
| SERINC3 C89 (UniProt Q13530) | -0.129 | 0.467 | -0.43 | -0.114 |
| SAE1 C342 | -0.105 | -0.108 | -0.0243 | -0.0548 |
| SAMHD1 C341 (UniProt Q9Y3Z3) | 0.12 | 0.166 | -0.443 | 0.127 |
| SCD5 C14 (UniProt Q86SK9) | -0.0481 | 0.137 | -0.473 | 0.0285 |
| SENP5 C473 (UniProt Q96HI0) | -0.0419 | 0.121 | -0.275 | 0.186 |
| SGO2 C528 (UniProt Q562F6) | 0.0531 | 0.128 | 0.428 | 0.0502 |
| SENP5 C326 (UniProt Q96HI0) | 0.376 | 0.0774 | 0.0196 | -0.163 |
| SBNO1 C626 (UniProt A3KN83) | 0.113 | 0.000689 | 0.0784 | 0.00275 |
| SEMA4F C53 | 0.0497 | – | -0.161 | -0.232 |
| SIX5 C266 (UniProt Q8N196) | -0.0782 | 0.0461 | 0.00381 | 0.225 |
| SF3B3 C1054 (UniProt Q15393) | 0.397 | -0.266 | 0.0788 | -0.362 |
| SGO2 C582 (UniProt Q562F6) | -0.501 | 0.291 | 0.0375 | -0.0301 |
| SASH1 C720 (UniProt O94885) | 0.146 | -0.153 | -0.211 | 0.0874 |
| SGSM3 C454 (UniProt Q96HU1) | -0.0126 | -0.2 | -0.0458 | 0.0577 |
| SEC23A C180 (UniProt Q15436) | -0.0936 | 0.0439 | -0.577 | -0.165 |
| SERINC3 C72 (UniProt Q13530) | -0.0986 | -0.0056 | -0.359 | -0.0174 |
| SETX C2006 (UniProt Q7Z333) | 0.336 | -0.287 | 0.0297 | 0.206 |
| SASS6 C94 (UniProt Q6UVJ0) | -0.201 | -0.103 | -0.789 | -0.111 |
| SF1 C279 | -0.185 | 0.0671 | 0.0168 | 0.128 |
| SHB C204 (UniProt Q15464) | -0.0398 | -0.00347 | 0.607 | 0.00451 |
| SEC24A C381 (UniProt O95486) | 0.228 | 0.0122 | -0.139 | -0.027 |
| SETX C688 (UniProt Q7Z333) | 0.0458 | 0.319 | -0.349 | -0.0229 |

Some of the entries above in another layout.
Target	log2 mean competition ratio ([1]; 50 µM)	log2 mean competition ratio ([1]; 200 µM)	log2 mean competition ratio ([2]; 50 µM)	log2 mean competition ratio ([2]; 200 µM)
SCD5 C14 (UniProt Q86SK9)	-0.0481	0.137	-0.473	0.0285
SASS6 C94 (UniProt Q6UVJ0)	-0.201	-0.103	-0.789	-0.111
